According to patent publication EP0454461A1, “Selective amplification system using Q beta replicase, a hybridization assay and a method of detecting and assessing concentration of target nucleic acid in liquid samples” (GENE-TRAK SYSTEMS CORPORATION, priority 1990, dated 1991):
Some entries share one result that the patent states for a list of compounds.

Tested on: Qβ replicase
Experiment: Inhibition by dyes of MDV-1 replication in linear-phase Qβ replicase reactions
Assay type: biochemical, bacteriophage Qβ
Conditions: template RNA in excess over the enzyme, concentration not given
Protocol: A number of dyes, including ethidium bromide, ethidium bromide homodimer, propidium iodide, proflavine, quinacrine, Hoescht 33258 (bis-benzamidine), dimidium bromide and acridine orange, were tested for their ability to inhibit the replication of MDV-1 in linear-phase reactions, i.e., where the template RNA is present in excess over the enzyme and the amount of replicated RNA thus increases linearly with time. […] One of the strongest inhibitors, propidium iodide, was selected for further study. A concentration of dye producing a 70% inhibition of replication, about 3µg/ml, is sufficiently low to allow detection of the fluorescence increase produced when the dye binds to the RNA products of the reaction.

Row | SMILES | ability to inhibit the replication of MDV-1 by Qβ replicase
1 | Nc1ccc2cc3ccc(N)cc3nc2c1 [proflavine] | inhibited
2 | CN(C)c1ccc2cc3ccc(N(C)C)cc3nc2c1 [acridine orange] | inhibited
